Measured data: PubChem BioAssay AID652243 (Drosophila RNAi Screening Center, 2013)

Purpose: 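Knock-downs that decrease or increase androgen receptor reporter signal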 (primary screen)
System: Drosophila S2R+ cells
Reagent: long dsRNA against Drosophila genes
Time to read-out: 72 h (48 h, then 24 h hormone)
Challenge: synthetic androgen R1881 at 10 nM for 24 h
Read-out: 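Firefly light from an androgen-responsive reporter and Renilla control light per well, raw and unnormalised, for each of two replicates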
Direction: firefly reporter light: higher = more light from androgen-responsive reporter; Renilla control light: higher = more constitutive control signal (cell number, transfection)
Rule for the call: 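Across duplicate plates, a knock-down whose log firefly/Renilla ratio shifted a set fold down or up from the GFP/LacZ control mean was a hit; the downward cut appears as both 1.5 and 3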
Calls: active = hit: reporter lowered or raised; inactive = no hit
In all, the deposit lists about 24,000 reagents; below is a random part of those with a known target gene and a result. Over the whole deposit, 246 (1%) got an active call. 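Plates not normalised; calls are printed but the firefly/Renilla ratio behind them is not deposited; fold cut for lowering reported inconsistently.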 The raw values are shown without normalisation. Names joined by + are all predicted targets of the reagent. Not given: the amount of reagent.

| target | DRSC id | firefly reporter light, replicate 1 | firefly reporter light, replicate 2 | Renilla control light, replicate 1 | Renilla control light, replicate 2 | Outcome |
| --- | --- | --- | --- | --- | --- | --- |
| Argk1 (GeneID 39041) | DRSC08959 | – | – | – | – | inactive |
| Argk1 (GeneID 39041) | DRSC09668 | 2.78e5 | 3.09e5 | 3.75e6 | 2.18e6 | inactive |
| Argk1 (GeneID 39041) | DRSC10460 | 1.12e6 | 6.24e5 | 1.74e6 | 1.12e6 | inactive |
| Argk1 (GeneID 39041) | DRSC21558 | 7.52e5 | 6.24e5 | 1.35e6 | 1.50e6 | inactive |
| Argk1 (GeneID 39041) | DRSC22665 | 6.11e5 | 5.73e5 | 1.40e6 | 1.12e6 | inactive |
| Fatp3 (GeneID 37887) | DRSC04366 | 2.16e5 | 2.06e5 | 1.07e6 | 7.94e5 | inactive |
| Fatp3 (GeneID 37887) | DRSC29135 | 7.87e5 | 6.58e5 | 1.27e6 | 1.02e6 | inactive |
| Orct (GeneID 42891) | DRSC16777 | 1.06e5 | 1.32e5 | 8.66e5 | 1.01e6 | inactive |
| Orct (GeneID 42891) | DRSC25574 | 5.62e5 | 4.08e5 | 4.11e5 | 4.33e5 | inactive |
| Gcn5 (GeneID 39431) | DRSC11248 | 1.32e6 | 8.45e5 | 1.20e6 | 9.18e5 | inactive |
| Gcn5 (GeneID 39431) | DRSC26932 | 4.87e5 | 3.03e5 | 4.68e5 | 2.62e5 | inactive |
| CG12994 (GeneID 50350) | DRSC19514 | 4.70e5 | 4.61e5 | 2.98e6 | 2.85e6 | inactive |
| mRpS14 (GeneID 117414) | DRSC19444 | 1.41e5 | 1.33e5 | 4.49e5 | 4.28e5 | inactive |
| klar (GeneID 38067) | DRSC08718 | 8.59e5 | 6.35e5 | 1.20e6 | 8.57e5 | inactive |
| klar (GeneID 38067) | DRSC22393 | 4.96e5 | 8.04e5 | 9.38e5 | 1.63e6 | inactive |
| CG4968 (GeneID 34384) | DRSC02794 | 4.99e5 | 4.08e5 | 2.58e6 | 2.05e6 | inactive |
| CG4968 (GeneID 34384) | DRSC29740 | 4.83e5 | 4.68e5 | 1.27e6 | 1.21e6 | inactive |
| EMC1 (GeneID 40933) | DRSC15455 | 59027 | 82796 | 4.63e5 | 4.39e5 | inactive |
| Npc2g (GeneID 43648) | DRSC14296 | 2.30e5 | 2.33e5 | 2.17e6 | 2.93e6 | inactive |
| Ucp4B + asRNA:CR43465 | DRSC02665 | 1.25e5 | 1.72e5 | 1.17e6 | 1.41e6 | inactive |
| CG2233 (GeneID 31721) | DRSC18217 | 47759 | 40983 | 5.15e5 | 3.41e5 | inactive |
| MtnB (GeneID 42424) | DRSC22744 | 8.38e5 | 6.16e5 | 1.98e6 | 1.53e6 | inactive |
| MtnB (GeneID 42424) | DRSC29147 | 5.17e5 | 6.28e5 | 1.20e6 | 1.15e6 | inactive |
| CG32625 (GeneID 318128) | DRSC18994 | 4.79e5 | 3.23e5 | 4.63e5 | 3.26e5 | inactive |
| CG32625 (GeneID 318128) | DRSC28080 | 3.90e5 | 3.49e5 | 1.24e6 | 1.39e6 | inactive |
| RpS10a (GeneID 43321) | DRSC14161 | 1.23e5 | 1.10e5 | 1.06e6 | 9.77e5 | inactive |
| RpS10a (GeneID 43321) | DRSC26061 | 2.75e5 | 2.19e5 | 5.47e5 | 4.39e5 | inactive |
| CG2006 + Spase12 | DRSC14316 | 2.63e5 | 2.18e5 | 2.66e6 | 3.13e6 | inactive |
| CG9008 (GeneID 34779) | DRSC01889 | 8.69e5 | 8.31e5 | 1.07e6 | 7.45e5 | inactive |
| CG9008 (GeneID 34779) | DRSC26675 | 3.29e5 | 2.66e5 | 6.66e5 | 5.97e5 | inactive |
| mus302 (GeneID 39874) | DRSC09905 | 2.16e5 | 2.38e5 | 2.13e6 | 2.00e6 | inactive |
| CG9062 (GeneID 36199) | DRSC07327 | 4.54e5 | 2.50e5 | 1.69e6 | 1.41e6 | inactive |
| CG9062 (GeneID 36199) | DRSC27558 | 2.87e5 | 2.89e5 | 4.53e5 | 8.00e5 | inactive |

Entries listed so far whose target name starts with M or m (4):
| target | DRSC id | firefly reporter light, replicate 1 | firefly reporter light, replicate 2 | Renilla control light, replicate 1 | Renilla control light, replicate 2 | Outcome |
| --- | --- | --- | --- | --- | --- | --- |
| mRpS14 (GeneID 117414) | DRSC19444 | 1.41e5 | 1.33e5 | 4.49e5 | 4.28e5 | inactive |
| MtnB (GeneID 42424) | DRSC22744 | 8.38e5 | 6.16e5 | 1.98e6 | 1.53e6 | inactive |
| MtnB (GeneID 42424) | DRSC29147 | 5.17e5 | 6.28e5 | 1.20e6 | 1.15e6 | inactive |
| mus302 (GeneID 39874) | DRSC09905 | 2.16e5 | 2.38e5 | 2.13e6 | 2.00e6 | inactive |

Additional results follow.
| target | DRSC id | firefly reporter light, replicate 1 | firefly reporter light, replicate 2 | Renilla control light, replicate 1 | Renilla control light, replicate 2 | Outcome |
| --- | --- | --- | --- | --- | --- | --- |
| Ptpmeg (GeneID 38059) | DRSC08684 | 9.19e5 | 1.01e6 | 1.09e6 | 1.27e6 | inactive |
| Ptpmeg (GeneID 38059) | DRSC26348 | 3.89e5 | 4.48e5 | 7.70e5 | 6.96e5 | inactive |
| Ptpmeg (GeneID 38059) | DRSC36883 | – | – | – | – | inactive |
| Ptpmeg (GeneID 38059) | DRSC36884 | – | – | – | – | inactive |
| Dso1 (GeneID 50126) | DRSC21815 | 3.64e5 | 4.30e5 | 3.19e6 | 4.23e6 | inactive |
| Dso1 (GeneID 50126) | DRSC29771 | 5.33e5 | 2.68e5 | 1.60e6 | 1.23e6 | inactive |
| Gclc (GeneID 53581) | DRSC18666 | 3.94e5 | 4.62e5 | 3.71e6 | 4.24e6 | inactive |
| CG30429 (GeneID 246609) | DRSC04040 | 1.11e5 | 1.83e5 | 3.18e5 | 5.35e5 | inactive |
| CG13784 (GeneID 34003) | DRSC00974 | 1.33e5 | 1.33e5 | 1.63e5 | 1.90e5 | inactive |
| CG8517 (GeneID 37268) | DRSC07205 | 1.25e5 | 1.15e5 | 1.45e6 | 1.44e6 | inactive |
| CG7386 (GeneID 38719) | DRSC10832 | 2.41e5 | 2.15e5 | 2.76e6 | 2.71e6 | inactive |
| CG7386 (GeneID 38719) | DRSC29368 | 4.95e5 | 5.06e5 | 8.65e5 | 8.65e5 | inactive |
| Mlh1 (GeneID 35796) | DRSC07473 | 9.02e5 | 5.02e5 | 9.33e5 | 8.71e5 | inactive |
| CG44837 (GeneID 5740513) | DRSC10133 | 27297 | 24021 | 6.25e5 | 6.07e5 | active |
| CG44837 (GeneID 5740513) | DRSC10558 | 1.54e5 | 1.54e5 | 2.24e6 | 1.74e6 | inactive |
| CG44837 (GeneID 5740513) | DRSC25062 | 9.68e5 | 9.50e5 | 1.33e6 | 1.49e6 | inactive |
| CG33704 (GeneID 3772359) | DRSC38898 | 8.18e5 | 7.01e5 | 1.85e6 | 1.17e6 | inactive |
| PTP-ER (GeneID 37461) | DRSC04636 | 7.98e5 | 8.94e5 | 2.00e6 | 2.62e6 | inactive |
| PTP-ER (GeneID 37461) | DRSC23325 | 4.71e5 | 5.20e5 | 6.03e5 | 6.70e5 | inactive |
| PTP-ER (GeneID 37461) | DRSC28263 | 4.74e5 | 7.80e5 | 9.86e5 | 1.43e6 | inactive |
| E(spl)m2-BFM (GeneID 43155) | DRSC23082 | 5.85e5 | 7.89e5 | 1.19e6 | 2.01e6 | inactive |
| Ero1L (GeneID 38500) | DRSC08660 | 1.12e6 | 4.94e5 | 1.53e6 | 1.03e6 | inactive |
| Sgs8 (GeneID 39285) | DRSC11282 | 3.06e5 | 2.20e5 | 3.00e6 | 2.84e6 | inactive |
| AANATL3 (GeneID 35285) | DRSC02089 | 1.39e5 | 1.90e5 | 1.20e6 | 1.26e6 | inactive |
| CG34215 (GeneID 5740170) | DRSC38697 | 7.27e5 | 7.41e5 | 1.71e6 | 2.09e6 | inactive |
